Results taken from PMC12040169 (PLOS Biology, 2025).
The other results are listed elsewhere or left out.

System: T1, CTL2-GFP (C. trachomatis L2/434/Bu, GFP-expressing)
T1 construct: L2/434/Bu, GFP-expressing
Set-up: species or system HeLa; Intracellular C. trachomatis growth in HeLa cells, bulk GFP fluorescence relative to DMSO
Conditions: bulk GFP, single well; 28.5 h, 10 µM; inhibitor

Structure (SMILES)	% of control remaining [%]
O=C(O)c1ccc2[nH]c(=O)[nH]c2c1 [CBK032631]	164.93
Cn1nc(C2CCN(Cc3ccccc3)CC2)c2cccnc21 [CBK285095]	120.758
COC(=O)c1ccc(CNc2nc(OC)cc(OC)n2)cc1 [CBK093391]	108.106
O=C(c1ccncc1)N1CCCC1(CO)Cc1ccccc1 (stereo not drawn) [CBK288620]	123.955
O=C1N[C@@]2(CC3CCC2CC3C(=O)NC2CC2)Nc2ccccc21 (stereo partly drawn) [CBK284454]	123.506
O=C(O)c1cccc2c1C(=O)N(Cc1ccc(F)cc1)C2 [CBK291183]	152.618
COc1ccc(N2C(N)=C(C#N)C(c3cccc(OC(C)C)c3)C3=C2CCS3(=O)=O)cc1 (stereo not drawn) [CBK293992]	158.907
CC(=O)c1ccc(CN2CCCN(S(=O)(=O)c3ccc(C(F)(F)F)cc3Cl)CC2)cc1 [CBK063106]	81.7795
CC(Cc1nc(-c2ccnn2C)cs1)n1cc(Cl)cn1 (stereo not drawn) [CBK304152]	106.846
O=C(O)CS(=O)(=O)c1ccc(Cl)cc1 [CBK262036G]	113.223
Clc1ccc(OCCOc2cncc(N3CCCC3)n2)cc1 [CBK115668]	103.165
O=C(CN1CCCC1)N1CCCC1c1nc2ccccc2[nH]1 (stereo not drawn) [CBK284003]	114.058
CC(C)(C)OC(=O)N1CCN(C(=O)c2cc(-c3cccnc3)on2)CC1 [CBK305648]	94.9377
CCN1CCN(c2ccc(NC(=S)NC(=O)c3ccccc3Br)cc2)CC1 [CBK268583]	86.7912
Cc1ccc(S(=O)(=O)c2cccc(S(=O)(=O)N3CCOCC3)c2)cc1S(=O)(=O)N1CCOCC1 [CBK262117]	93.2278
Cc1ncsc1CCOc1nccnc1NC(C)C [CBK115728]	161.436
CCOc1cc(OCC)cc(C(=O)N2CCC3(CC2)NC(=O)c2cc(I)ccc2O3)c1 [CBK166301]	122.12
CN(CCN1CCCCC1)C(=O)C1(c2ccc(F)cc2)CC1 [CBK282178]	116.25
O=C(O)c1ccc(/C=C/C(=O)c2ccc3c(c2)OCCO3)cc1 [CBK262173]	106.551
COc1ccc(C2CC(=O)C3=C(C2)NC(C)=C(C#N)C3c2cccc(F)c2)cc1 (stereo not drawn) [CBK293922]	158.536
O=C(COc1nc2cc3c(nc2o1)CCC3)c1ccccc1 [CBK269407]	128.106
CC(Cn1cccn1)C(=O)Nc1cccc(N2CCCC2)c1 (stereo not drawn) [CBK283249]	135.152
CN(C)Cc1c(O)ccc2occ(C(=O)c3cccs3)c12 [CBK261959C]	119.017
O=S(=O)(c1cccs1)N1CCC2(CC1)OCCO2 [CBK057295]	95.3298
CN(CC(=O)NCc1ccc(Cl)cc1)S(=O)(=O)Cc1ccc(C#N)cc1 [CBK305899]	128.856
CCn1cc(CN(CCCN(C)C)Cc2ccc(C)o2)c(C)n1 [CBK283201]	139.332

Structure (SMILES)	% of control remaining [%]
Cn1nccc1C(=O)NC(Cc1ccsc1)c1nccs1 (stereo not drawn) [CBK285138]	122.989
O=C(Cn1ncc2cccn2c1=O)OC1CCCCC1 [CBK283667]	120.555
COCCNc1nc(-c2cc(C(C)C)ccc2OC)ccc1C(=O)Nc1cccc(OC)c1 [CBK105904]	101.352
Cc1cccc(C(=O)Nc2ccc(-c3nnc(-c4ccc(NC(=O)c5cccc(C)c5)cc4)o3)cc2)c1 [CBK261603]	109.914
COc1ccc(-c2noc(CNC(=O)Nc3ccccc3)n2)cc1OC [CBK269900]	148.983
O=C(O)c1ccc(N2C(=O)C(=Cc3c4ccccc4cc4ccccc34)SC2=S)cc1 [CBK296101]	140.57
O=C(NCCOCc1ccc(Cl)cc1)c1cc(-n2cnnc2)ccc1Cl [CBK267939]	118.943
O=C(CSc1ncccc1C(=O)O)Nc1nnc(Cc2ccccc2)s1 [CBK299835]	127.189
N#Cc1ccccc1NC(=O)CSc1nc2cc(Cl)ccc2[nH]1 [CBK270019]	57.9566
Cc1cc(NS(=O)(=O)c2cc(C(=O)O)c(Cl)cc2F)n(C)n1 [CBK067260]	105.279
CCCn1ncc(CN[C@@H]2CCC[C@H]2Cc2cc(C)no2)c1C [CBK282948]	117.266
COc1ccc2c(c1)cc(C(=O)N(C)CCCn1nc(C)cc1C)n2C [CBK307196]	129.842
Cc1nn(-c2ccc(F)cc2)c2c1C(c1ccc(C(=O)O)cc1)CC(=O)N2 (stereo not drawn) [CBK286561]	101.925
COc1cc2c(cc1CNC1CCCc3c1cnn3C)OC(C)C2 (stereo not drawn) [CBK304296C]	95.6832
O=C1NC2(CCN(C(=O)CC3c4ccccc4Oc4ccccc43)CC2)Nc2ccccc21 [CBK286307]	63.4876
O=C(O)C[C@@H]1CCN(C(=O)NCc2ccccc2)C[C@@H]1CC1=NCCc2ccccc21 [CBK289161]	135.907
Cc1cccc(C(=O)NCc2nnc(SCC(=O)N3CCOCC3)n2C)c1 [CBK269723]	119.381
CCCC(CCC)C(=O)Nc1ccc(NC(=O)c2ccco2)c(C)c1 [CBK058263]	116.25
Cc1cc(C(=O)N2CCCCCC2c2c(Cl)cnn2C)on1 (stereo not drawn) [CBK284916]	85.475
CCCC(=O)N1CCCC(c2nnc(-c3cccs3)o2)C1 (stereo not drawn) [CBK283057]	127.494
Nc1ccc(C(=O)Nc2nc3ccccc3s2)cc1 [CBK287608]	97.0665
OC(CSc1ccc(F)cc1)CN1CCN(c2ccc(C(F)(F)F)cn2)CC1 (stereo not drawn) [CBK074688]	129.932
Cc1cc2oc(=O)cc(C)c2cc1NC(=O)c1ccccc1C(=O)O [CBK286572]	102.293
O=C(Nc1nnc(-c2ccc3c(c2)OCCO3)o1)c1ccc2c(c1)OCCO2 [CBK287403]	170.78
Cn1ncc2c1C(=O)NC1c3ccccc3C(=O)N21 (stereo not drawn) [CBK113668]	155.153

Of the compounds above, 2 contain a CF3 group.
Structure (SMILES)	% of control remaining [%]
CC(=O)c1ccc(CN2CCCN(S(=O)(=O)c3ccc(C(F)(F)F)cc3Cl)CC2)cc1 [CBK063106]	81.7795
OC(CSc1ccc(F)cc1)CN1CCN(c2ccc(C(F)(F)F)cn2)CC1 (stereo not drawn) [CBK074688]	129.932
